The values below come from PMC7819943, “Rice protein-binding microarrays: a tool to detect cis-acting elements near promoter regions in rice”.

Protein sequences, listed by entry. Tags and fused reporters are not part of them.
UniProt Q0JBA9, entry or part of it: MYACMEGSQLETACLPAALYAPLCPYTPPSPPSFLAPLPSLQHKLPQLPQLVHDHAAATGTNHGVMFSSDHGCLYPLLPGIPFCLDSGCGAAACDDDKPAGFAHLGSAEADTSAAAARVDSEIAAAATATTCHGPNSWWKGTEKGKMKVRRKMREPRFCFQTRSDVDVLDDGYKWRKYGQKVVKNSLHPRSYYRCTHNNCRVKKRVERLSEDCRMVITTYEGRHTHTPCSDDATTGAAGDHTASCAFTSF

Some of the results follow.

In the assay the target is OsWRKY34 (Oryza sativa, UniProt Q0JBA9 1-250). Put plainly: protein-binding microarray (RPBM); PBS, 2% BSA, 51.3 ng/ul salmon testes DNA, 50 uM zinc acetate, 200 nM TF, 25 C, 1 h; high values mean tight binding. The note with it: protein: recombinant; tags: N-terminal polyhistidine and DsRed monomer fusion (pET32a); label: CyDye5-dUTP incorporated in the synthesized complementary strand; 3' TTTTT single-stranded linker to array surface; dsDNA, one strand shown. The gist of the method: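 The binding signal is fluorescence intensity per feature, in arbitrary units, read on an Axon 4000B scanner. Polyhistidine- and DsRed-tagged transcription factors (N-terminal fusions) from E. coli BL21-CodonPlus were purified on Ni–NTA and applied at 200 nM for 1 h at 25 °C to a double-stranded, BSA-blocked custom Agilent array in buffer with 50 µM zinc acetate.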
For the sequence “CCACCACCGCACTCAACTCAACTCGTGTCCTTTTTCACGACGGAGTCACCTAGTGCAG”, the binding signal is 10400 fluorescence intensity (a.u.).

“CGTTGTTTATCTTTTCTAATGCCATGTGTATATATGATTCCGGAGTCACCTAGTGCAG”: the binding signal is 10500 fluorescence intensity (a.u.).

Take “GGTGGGTTGTTTTTTCAGCATGGTGTTCTTTTAGGGAGAGCGGAGTCACCTAGTGCAG”: the binding signal is 12400 fluorescence intensity (a.u.).

Turning to “CCACGGCGTCCTCGAACTTGATCGCGCTGTCCAACAACCCCGGAGTCACCTAGTGCAG”, the binding signal is 9020 fluorescence intensity (a.u.).

With “CCTCTGAGTCTATCTCTCTCATCTGATTCCTGCGTTTTTCCGGAGTCACCTAGTGCAG”, the binding signal is 14100 fluorescence intensity (a.u.).

As to “CTGTTGTTTTCAGTTCAGTCATTGAATCATTTACTATGCTCGGAGTCACCTAGTGCAG”, the binding signal was 11200 fluorescence intensity (a.u.).

As for “TCGTCGATCATCAACCGCATCAGCATCCATCCATCCATCCCGGAGTCACCTAGTGCAG”, the binding signal is 8190 fluorescence intensity (a.u.).

Turning to “AGCGCTCCGGGGCTTTTTTGGCTGGCGTGTTCGCTTCCGGCGGAGTCACCTAGTGCAG”, the binding signal is 9780 fluorescence intensity (a.u.).

With “GAGGCAGTGTGTTGTGGAGTCGTATGGCGAGTCCTTGTCTCGGAGTCACCTAGTGCAG”, the binding signal was 9030 fluorescence intensity (a.u.).

With “AGATCTCTGCCGTCGCTGGCACCATCTCTCTATGGTACATCGGAGTCACCTAGTGCAG”, the binding signal is 8360 fluorescence intensity (a.u.).

With “TTGGTAGTTTGCATGTTAGCCTGGCTGTATCACTTTCAGACGGAGTCACCTAGTGCAG”, the binding signal is 8400 fluorescence intensity (a.u.).

Regarding “ACACACTCCTAACGCATCGCCGGCGCTTTGATTTCTATAACGGAGTCACCTAGTGCAG”, the binding signal was 10800 fluorescence intensity (a.u.).

As to “ATGCTAATGAGTTTTCTTGTTTCGTGTGCACTCTAAATATCGGAGTCACCTAGTGCAG”, the binding signal was 8130 fluorescence intensity (a.u.).

As for “GGTCGTGCGGGTTAGAGCATTCGCGATATTTAGGGTCCTACGGAGTCACCTAGTGCAG”, the binding signal is 9730 fluorescence intensity (a.u.).

For “AGCGGCTAGCTCTTGATTTTTTTTCTCTTCATTTTTGTACCGGAGTCACCTAGTGCAG”, the binding signal was 8290 fluorescence intensity (a.u.).

Turning to “GCTACTATGTATTGCGTTAGGTTTGACTATTTTATGCCTTCGGAGTCACCTAGTGCAG”, the binding signal is 10300 fluorescence intensity (a.u.).

As for “CTGCTAAAATTTGACTAGGTTGTTAACATGCCATTTTTTTCGGAGTCACCTAGTGCAG”, the binding signal is 8920 fluorescence intensity (a.u.).

Regarding “ACATCATCTCTACAGTGCATCATCCCATCCATCCATCTTTCGGAGTCACCTAGTGCAG”, the binding signal is 10500 fluorescence intensity (a.u.).

As for “GAAAACCATTATCTTCATGTTTATATGATTGCAACTAATTCGGAGTCACCTAGTGCAG”, the binding signal was 8970 fluorescence intensity (a.u.).

For “CAAACTCCAAACACCACCTGCAGCTTTCAATTCCATTATTCGGAGTCACCTAGTGCAG”, the binding signal was 8330 fluorescence intensity (a.u.).

In the case of “TAACATATGTTTGGTTTGTTACCCTACTAGAGTTTTATAACGGAGTCACCTAGTGCAG”, the binding signal was 9100 fluorescence intensity (a.u.).

In the case of “CGAGGTGTGTCTCTCTCCCGTTCACCCGTCCGTATCCTTCCGGAGTCACCTAGTGCAG”, the binding signal is 11100 fluorescence intensity (a.u.).

Turning to “CGAGCCGAATGCTGCCTACTGCCGCCGCTTTTTTTTTTTCCGGAGTCACCTAGTGCAG”, the binding signal is 11300 fluorescence intensity (a.u.).

For the sequence “GCTACACTTGTCCTCATTTACCAACACACAAGCTCTCCCTCGGAGTCACCTAGTGCAG”, the binding signal is 8080 fluorescence intensity (a.u.).

Consider “GCGAGCGACTTCCCCATGGTCAACAAATTTAAATTTATAGCGGAGTCACCTAGTGCAG”, for which the binding signal was 8980 fluorescence intensity (a.u.).

For “TTTTTTATATATTACACTGCTTCTTATATTCAGGTTTTTACGGAGTCACCTAGTGCAG”, the binding signal is 8770 fluorescence intensity (a.u.).

On to “ACCATCTCATTCTCATTCTCTTCTCTCTCTAGTTCTCATGCGGAGTCACCTAGTGCAG”, for which the binding signal was 10200 fluorescence intensity (a.u.).

In the case of “TCACTCGAGCTTCACACCTGTGTCAGATCTCGGAATCACTCGGAGTCACCTAGTGCAG”, the binding signal was 9240 fluorescence intensity (a.u.).

As to “TAGGGGTCAAGATATCTGGTTTTGCGGTTCAGGGTCATGACGGAGTCACCTAGTGCAG”, the binding signal is 9980 fluorescence intensity (a.u.).

Turning to “AAACTCTCACTCGCTCACTCACACCTCACACGCTGCTGCTCGGAGTCACCTAGTGCAG”, the binding signal is 8070 fluorescence intensity (a.u.).

As for “CGCCGTCACGCACCCACGCACGCACGCACGCACGCATATACGGAGTCACCTAGTGCAG”, the binding signal was 9180 fluorescence intensity (a.u.).

“ACATTGATGTACTTTTTCCCACTCTGTTTGATCCATTTGACGGAGTCACCTAGTGCAG”: the binding signal was 10600 fluorescence intensity (a.u.).

With “TCCCGACACCGGCTGTCCACTTCGCTCTGCTCCACGCCGCCGGAGTCACCTAGTGCAG”, the binding signal is 8660 fluorescence intensity (a.u.).

For the sequence “CCGTTTCTTGCATGCCACCTACATGATTATGAAAAAATTCCGGAGTCACCTAGTGCAG”, the binding signal is 9760 fluorescence intensity (a.u.).

“CTCAAGCAACATGTTCTTGTGTCCTTGGTTGGCCTCCATGCGGAGTCACCTAGTGCAG”: the binding signal is 8400 fluorescence intensity (a.u.).

“CTATTTTTCCTTTTCTTTATTTTTAAAGCTATCGCCAAACCGGAGTCACCTAGTGCAG”: the binding signal is 8870 fluorescence intensity (a.u.).

In the case of “ATCCTCTTCTTGCTTCACCTGCTGCCCTCTGCTCCGGTCGCGGAGTCACCTAGTGCAG”, the binding signal is 8050 fluorescence intensity (a.u.).

As to “GTATGGATCTATGTTGTCTTATTTAGTACTGTGTTACTATCGGAGTCACCTAGTGCAG”, the binding signal is 10100 fluorescence intensity (a.u.).

As to “GCACGCTCCGCAGCTCCGCCGCGCTCACGTACCCGTCCCCCGGAGTCACCTAGTGCAG”, the binding signal is 8590 fluorescence intensity (a.u.).

Regarding “TTTTTGACTTTGACTTTTAATAGTAAAAAAATCAATTATGCGGAGTCACCTAGTGCAG”, the binding signal is 9900 fluorescence intensity (a.u.).

Turning to “TACTAATCTCTCCCTGTAAAGCTCAGTTCCTGCATTAAATCGGAGTCACCTAGTGCAG”, the binding signal was 9330 fluorescence intensity (a.u.).

In the case of “TGTACAGTTGGTTCTTTTCTTTTTTTTTTTCAGTTGAGTCCGGAGTCACCTAGTGCAG”, the binding signal was 9330 fluorescence intensity (a.u.).
